104 compounds from the supplement of paper PMC12578635 can be followed below.

± gives the standard deviation of the averaged measurements. Some of the results follow. Most values come without repeats; read them as rough.

The test system of this assay is RAW 264.7 macrophages infected with S. aureus JE2-lux. The assay can be described thus: host macrophage viability (CellTiter-Fluor) relative to DMSO vehicle; higher = more viable host cells. The note with it: 10 µM; treatment time 4 h; gentamicin 50 µg/ml.
Take `Cc1cccc(-c2nc3c4ccccc4n(CC(=O)Nc4ccccc4Cl)c(=O)n3n2)c1`: the host macrophage viability is 109%.

In the case of `CCOC(=O)c1ccccc1NC(=O)CSc1nc2[nH]ncc2c(=O)[nH]1`, the host macrophage viability stood at 117%.

`COc1ccc(Cl)cc1NC(=O)CSc1nnc2c3cc(C)ccc3n(C)c2n1`: the host macrophage viability stood at 109%.

As to `Cc1cc2c(c(=O)n1CCCN1CCOCC1)C(c1ccc(Cl)cc1)C(C#N)=C(N)O2` (centres undefined), the host macrophage viability came out at 106%.

As for `Cc1cc(C)n(-c2cc(Nc3ccc4c(c3)OCCO4)ncn2)n1`, the host macrophage viability came to 102%.

In the case of `N#Cc1ccc(-c2ccco2)nc1SCC(=O)NCc1ccc2c(c1)OCO2`, the host macrophage viability was 120%.

`CCc1ccccc1NS(=O)(=O)c1cc(-c2ccn[nH]2)cs1`: the host macrophage viability stood at 118%.

On to `Cn1ncc2c1CCc1sc(NC(=O)CC3SC(=O)NC3=O)nc1-2` (centres undefined), for which the host macrophage viability was found to be 102%.

Consider `O=C1c2oc3ccccc3c(=O)c2C(c2ccccc2)N1Cc1cccnc1` (centres undefined), for which the host macrophage viability amounted to 116%.

`CN1C(=O)N(CC(=O)NC2CCCC2)c2cccnc2N1C`: the host macrophage viability stood at 128%.

As to `CC1Cc2ccccc2N1Cc1nnc(-c2ccccc2)o1` (centres undefined), the host macrophage viability stood at 126%.

For `COc1nn(C)cc1C(=O)Nc1ccc(C)c(C)c1`, the host macrophage viability turned out to be 115%.

With `Cc1cccc(C)c1OCCn1c(CO)nc2ccccc21`, the host macrophage viability stood at 148%.

Regarding `COc1ccc(-n2ccnc(SCC(=O)NCc3ccccc3)c2=O)cc1OC`, the host macrophage viability came out at 127%.

`CC(=O)c1ccc(NC(=O)CSc2ncc(C(=O)Nc3ccc(C)c(C)c3)c(=O)n2C)cc1`: the host macrophage viability worked out at 123%.

As for `CCCc1cc(=O)[nH]c2nnc(SCC(=O)NC3CCCC3)n12`, the host macrophage viability amounted to 106%.

Consider `O=C(CSC1=NS(=O)(=O)c2ccccc2N1)NCC1CCCO1` (centres undefined), for which the host macrophage viability worked out at 119%.

Take `O=C(CSc1ncc(S(=O)(=O)c2ccc(Cl)cc2)c(=O)[nH]1)Nc1ccccc1F`: the host macrophage viability turned out to be 106%.

Regarding `CC1CCN(S(=O)(=O)c2ccc(C(=O)Nc3cc(C(F)(F)F)ccc3Cl)cc2)CC1`, the host macrophage viability is 123%.

As to `COCCCNC(=O)Cn1c(-c2cccs2)cc2cccnc21`, the host macrophage viability was 146%.

`CCc1cccc(NC(=O)c2cc3n(n2)CCCN(Cc2ccccc2)C3=O)c1`: the host macrophage viability is 120%.

For the compound `CCOC(=O)C1=C(C)NC(O)=NC1c1cc(Br)c(O)c(OC)c1` (centres undefined), the host macrophage viability was found to be 116%.

Take `Cc1cc2nc(NC(=O)c3ccc(S(=O)(=O)N4CCCC(C)C4)cc3)sc2cc1C` (centres undefined): the host macrophage viability amounted to 125%.

`Cc1ccc(-c2nc3c(c(SCC(N)=O)n2)Cc2cc(C)ccc2O3)cc1`: the host macrophage viability turned out to be 128%.

`O=C(Nc1cccc(F)c1)c1cnc2n(c1=O)CCS2`: the host macrophage viability is 119%.

As to `COC(=O)C1=C(N)Oc2cc(C)[nH]c(=O)c2C1c1cccc(OC)c1` (centres undefined), the host macrophage viability came out at 119%.

Turning to `CCOC(=O)c1ccsc1NC(=O)c1coc2ccccc2c1=O`, the host macrophage viability turned out to be 124%.

Regarding `O=C1CCc2cc(S(=O)(=O)NCc3ccco3)cc3c2N1CC3`, the host macrophage viability came out at 111%.

As to `CCOC(=O)c1cccc(NC(=O)C2CCN(c3nccc4c(C)nn(CC)c34)CC2)c1`, the host macrophage viability is 138%.

For `Cn1c2ccccc2c2nnc(SCC(=O)Nc3ccc4c(c3)CCC4)nc21`, the host macrophage viability came out at 109%.

In the case of `CCCn1cc(C(=O)Nc2ccc3c(c2)OCCO3)c2nn(-c3ccccc3)c(=O)c-2c1`, the host macrophage viability amounted to 99.5%.

Turning to `O=C(COc1ccccc1C1CC(c2ccccc2)=NN1C(=O)c1ccccc1)NCCO` (centres undefined), the host macrophage viability came out at 108%.

Turning to `O=c1[nH]c(SC/C=C/c2ccccc2)nc2sc3c(c12)CCC3`, the host macrophage viability came to 99.3%.

Consider `Cn1c(=O)n(CC(N)=O)c(=O)c2c1nc1n2CCCN1c1ccc(Br)cc1`, for which the host macrophage viability came out at 118%.

On to `COc1ccccc1NC(=O)c1cnn2c(=O)cc(C(C)C)[nH]c12`, for which the host macrophage viability came out at 100%.

Consider `COc1ccc(OC)c2sc(N(CCCn3ccnc3)C(=O)c3ccco3)nc12`, for which the host macrophage viability amounted to 100%.

Take `O=C(/C=C/c1cccs1)Nc1nc2c(cc3c4c(cccc42)CC3)s1`: the host macrophage viability came out at 124 ± 12%.

Regarding `COc1ccc(NC2CC(=O)N(c3cc([N+](=O)[O-])ccc3C)C2=O)cc1` (centres undefined), the host macrophage viability was 119%.

With `NC(=O)c1c(NC(=O)/C=C/c2cccs2)sc2c1CCCCC2`, the host macrophage viability was 107 ± 2.6%.

On to `COCCCNC(=O)c1cc(-c2ccc(C)cc2)nc2n[nH]c(-c3ccc(F)cc3)c12`, for which the host macrophage viability came out at 114%.

Regarding `Cc1nc2nc(Cc3cccc(F)c3)nn2c(N2CCN(Cc3ccc4c(c3)OCO4)CC2)c1C`, the host macrophage viability was found to be 130%.

Regarding `Cc1cccc(C2(O)CCN(C(=O)c3sc4ncn(C)c(=O)c4c3C)CC2)c1`, the host macrophage viability was determined as 129%.

On to `COc1ccc(CC(=O)Nc2cc(NC(=O)c3cccs3)ccc2C)cc1OC`, for which the host macrophage viability amounted to 124%.

Regarding `Cc1cc2nc(C3CCN(CC(=O)Nc4ccccc4C(F)(F)F)CC3)[nH]c2cc1C`, the host macrophage viability was 116%.

`CCOC(=O)c1[nH]c2ccc(OC)cc2c1NC(=S)N1CCN(C(=O)OCC)CC1`: the host macrophage viability came to 128%.

For the compound `COc1cc(NC(=O)c2cnc(C)cn2)ccc1NC(=O)C1CCCCC1`, the host macrophage viability was determined as 111%.

Consider `CC1CCN(C(=O)c2cnc3ccc(Cl)cc3c2O)CC1`, for which the host macrophage viability is 104%.

Regarding `Cn1c(=O)c2c(nc3n2CC(COc2ccc(Cl)cc2)O3)n(C)c1=O` (centres undefined), the host macrophage viability stood at 130%.

As to `CC(C)c1csc(-c2csc(S(=O)(=O)NC3CCCCC3)c2)n1`, the host macrophage viability amounted to 70%.

For the compound `CC(=O)Nc1cccnc1-c1ccc(C(=O)NC2CCCc3ccccc32)cc1` (centres undefined), the host macrophage viability is 107%.

In the case of `CCN(c1ccccc1)S(=O)(=O)c1ccc2[nH]c(=O)[nH]c2c1`, the host macrophage viability came to 121%.

As for `O=C(Nc1ccccc1F)c1ccnc(N2CCC(C(=O)NCc3ccc(F)cc3)CC2)c1`, the host macrophage viability was determined as 136%.

Turning to `CCCCOc1ccc(-c2cc3c(N4CCC(C(=O)N5CCCC5)CC4)nccn3n2)cc1`, the host macrophage viability was 128%.

Consider `CCc1ccccc1NC(=O)CN1N=NC2C(=O)N(c3ccc(F)c(F)c3)C(=O)C21` (centres undefined), for which the host macrophage viability was found to be 103%.

Turning to `CCOC(=O)c1ccc(NC(=O)CSc2ncnc3c2nnn3Cc2ccccc2)cc1`, the host macrophage viability was 111 ± 8.7%.

For the compound `COc1ccc(NC(=O)c2ccc(Cn3c(=O)[nH]c4ccsc4c3=O)cc2)cc1`, the host macrophage viability turned out to be 131%.

For the compound `O=C(Nc1ccccn1)c1cccn2c(-c3ccccc3F)nnc12`, the host macrophage viability came to 114%.

Consider `COc1cccc2sc(N(CCCn3ccnc3)C(=O)c3ccc4c(c3)OCCO4)nc12`, for which the host macrophage viability came out at 98.7%.

With `COc1cccc(NC(=O)CSc2nnc(Cc3ccc(Cl)cc3)c(=O)[nH]2)c1`, the host macrophage viability amounted to 104%.

On to `CC1CCc2c(sc3ncn4c(=O)n(CCC(N)=O)nc4c23)C1` (centres undefined), for which the host macrophage viability worked out at 120%.

In the case of `Cc1cc(C)n(Cc2c(C(=O)NCc3c(C)nn(C)c3C)noc2C)n1`, the host macrophage viability was 115%.

For `Cc1cc(-c2csc(S(=O)(=O)N3CCN(CCOc4ccc(Cl)cc4)CC3)c2)on1`, the host macrophage viability was found to be 103%.

With `Cc1c(S(=O)(=O)c2ccccc2)nnn1-c1ccccc1`, the host macrophage viability is 116%.

On to `S=C(Nc1ccccc1Cl)NC1CC2CCC(C1)N2Cc1ccccc1` (centres undefined), for which the host macrophage viability turned out to be 105%.

As to `Cc1nn(S(=O)(=O)c2ccccc2[N+](=O)[O-])c(C)c1Sc1ccccc1`, the host macrophage viability came out at 101%.

As for `O=C1CCc2cc(S(=O)(=O)NCC(c3ccc(F)cc3)N3CCCC3)ccc2N1` (centres undefined), the host macrophage viability worked out at 102%.

For `O=C(CC1C(=O)Nc2ccccc2N1C(=O)c1cccs1)Nc1ccc(Cl)c(Cl)c1` (centres undefined), the host macrophage viability was 119%.

Regarding `CN(C)S(=O)(=O)c1ccc(C(=O)Nc2sc3c(c2-c2nc4ccccc4s2)CCCC3)cc1`, the host macrophage viability was determined as 98.7%.

`CCOc1cc(C(=O)NCC(=O)N/N=C/c2ccccc2)cc(OCC)c1OCC`: the host macrophage viability was 101%.

Regarding `COC(=O)c1cc(C)sc1NC(=O)CC1Sc2ccc(C(F)(F)F)cc2NC1=O` (centres undefined), the host macrophage viability stood at 122%.

As to `Cc1cc(Nc2nc(C(=O)N3CCC(N4CCCCC4)CC3)cc3occc23)ccc1Br`, the host macrophage viability amounted to 106%.

As to `CCC(C(=O)Nc1c(C(=O)Nc2ccc([N+](=O)[O-])cc2)oc2ccccc12)c1ccccc1` (centres undefined), the host macrophage viability came out at 108 ± 26%.

Turning to `COc1ccccc1CNC(=O)c1nccn1Cc1ccccc1Cl`, the host macrophage viability worked out at 109%.

Turning to `O=C1Nc2c(Cl)cc(Cl)cc2/C1=N\NC(=O)c1ccccc1O`, the host macrophage viability stood at 121%.

On to `CCOC(=O)c1cnn2c(C)c(Cc3ccccc3)c(C)nc12`, for which the host macrophage viability stood at 107%.

`CCOc1ccc(C(=O)NCC(c2ccc3c(c2)CCN3C)N2CCCCC2)cc1` (centres undefined): the host macrophage viability was found to be 116%.

Take `Cn1cnnc1SCC(=O)Nc1nnc(-c2ccc(Br)cc2)s1`: the host macrophage viability amounted to 103 ± 11%.

Take `Cc1[nH]c(=O)[nH]c(=O)c1NC(=O)CSc1ccc(-c2ccc(F)cc2)nn1`: the host macrophage viability was found to be 79.3%.

As for `NS(=O)(=O)c1ccc(NC(=O)CCn2cnc3onc(-c4ccccc4Cl)c3c2=O)cc1`, the host macrophage viability is 121%.

As for `O=C(Nc1ccccc1F)N1CCc2nc(N3CCCC3)[nH]c(=O)c2C1`, the host macrophage viability came out at 88.4%.

For the compound `CC(C)N1CCn2c(nc3cc(NC(=O)CCc4ccccc4)ccc32)C1`, the host macrophage viability worked out at 102%.

As to `O=C(CSCc1ccccc1)NCc1n[nH]c(=O)c2ccccc12`, the host macrophage viability came to 107%.

For `CC1CC(C)CN(S(=O)(=O)c2ccc(C(=O)Nc3ccc4ncsc4c3)cc2)C1` (centres undefined), the host macrophage viability turned out to be 116%.

Regarding `Cc1ccc(-c2noc(-c3cn(Cc4ccc(N)cc4)cn3)n2)cc1`, the host macrophage viability came to 111%.

As for `COc1ccc(-c2nnc3sc(-c4ccc(Br)o4)nn23)cc1`, the host macrophage viability was found to be 99.9%.

Take `O=C(NCc1nnnn1-c1ccc(F)cc1)Nc1ccc2c(c1)OCO2`: the host macrophage viability turned out to be 108%.

Regarding `Cc1cccn2c(=O)nc(SCC(=O)N3CCCCCC3)nc12`, the host macrophage viability is 113%.

As for `O=C(CSc1nc2[nH]ncc2c(=O)[nH]1)N1CCC(Cc2ccccc2)CC1`, the host macrophage viability was 105%.

`O=C(Nc1cccc(C(=O)N2CCOCC2)c1)c1cnn(-c2ccc(F)cc2)c1`: the host macrophage viability is 122%.

As for `Cc1nn2c(=O)cc(CSc3nnc(-c4ccc5c(c4)OCO5)o3)nc2s1`, the host macrophage viability is 120%.

As to `NC(=O)c1ccccc1NC(=O)c1ccc2nncn2c1`, the host macrophage viability worked out at 115%.

As to `Cc1nn(C)c(C)c1CNC(=O)c1cc(-c2ccccn2)nc2ccccc12`, the host macrophage viability was 95.5%.

Take `O=C1NC(=O)/C(=C/c2ccc(C(=O)Nc3ccc(C(=O)O)cc3)cc2)S1`: the host macrophage viability was found to be 117%.

As to `N#CC1=C(N)OC2=C(C(=O)CCC2)C1c1ccc(-c2cccc([N+](=O)[O-])c2)o1` (centres undefined), the host macrophage viability turned out to be 105%.

Take `O=c1nc2s/c(=C/c3ccccn3)c(=O)n2nc1-c1ccccc1`: the host macrophage viability turned out to be 121%.

On to `COC(=O)c1ccccc1NC1SC(=O)N(c2cccc(C)c2)C1=O` (centres undefined), for which the host macrophage viability was determined as 121%.

With `Cc1nc(-n2nc(C)c(CCC(C)C)c2O)sc1C(=O)Nc1ccc(Cl)cc1`, the host macrophage viability amounted to 117%.

For the compound `Cc1onc(-c2ccncc2)c1C(=O)N1CCn2c(C)ccc2C1C(C)C` (centres undefined), the host macrophage viability was found to be 99.3%.

Turning to `O=C(NCc1ccc2c(c1)OCO2)c1cnc2ccc(F)cc2c1O`, the host macrophage viability came out at 123%.

As for `CC(C)(C)c1ncc(C(=O)NC(c2ccccc2)c2cccnc2)cn1` (centres undefined), the host macrophage viability amounted to 114%.

For the compound `COc1ccc2c(c1OC)C(=O)OC2Nc1ccc(CC(=O)O)cc1` (centres undefined), the host macrophage viability worked out at 134%.

For `Cc1cnc(C(=O)Nc2ccc(C(=O)NC3CC3)cc2)cn1`, the host macrophage viability stood at 115%.

As for `COc1cccc(NC(=O)N2CCCC(C(=O)NC3CCCCC3C)C2)c1` (centres undefined), the host macrophage viability stood at 112%.

Regarding `CC(NC(=O)c1ccc2c(=O)[nH]c3c(-c4cccc(C(F)(F)F)c4)nnn3c2c1)c1ccc(F)cc1` (centres undefined), the host macrophage viability was 128%.
